Our source for the binding values is publication PMC1828611.

In assay [1] the target is T1, Hpo-Myc (Drosophila melanogaster) (UniProt Q8T0S6).
T1 sequence: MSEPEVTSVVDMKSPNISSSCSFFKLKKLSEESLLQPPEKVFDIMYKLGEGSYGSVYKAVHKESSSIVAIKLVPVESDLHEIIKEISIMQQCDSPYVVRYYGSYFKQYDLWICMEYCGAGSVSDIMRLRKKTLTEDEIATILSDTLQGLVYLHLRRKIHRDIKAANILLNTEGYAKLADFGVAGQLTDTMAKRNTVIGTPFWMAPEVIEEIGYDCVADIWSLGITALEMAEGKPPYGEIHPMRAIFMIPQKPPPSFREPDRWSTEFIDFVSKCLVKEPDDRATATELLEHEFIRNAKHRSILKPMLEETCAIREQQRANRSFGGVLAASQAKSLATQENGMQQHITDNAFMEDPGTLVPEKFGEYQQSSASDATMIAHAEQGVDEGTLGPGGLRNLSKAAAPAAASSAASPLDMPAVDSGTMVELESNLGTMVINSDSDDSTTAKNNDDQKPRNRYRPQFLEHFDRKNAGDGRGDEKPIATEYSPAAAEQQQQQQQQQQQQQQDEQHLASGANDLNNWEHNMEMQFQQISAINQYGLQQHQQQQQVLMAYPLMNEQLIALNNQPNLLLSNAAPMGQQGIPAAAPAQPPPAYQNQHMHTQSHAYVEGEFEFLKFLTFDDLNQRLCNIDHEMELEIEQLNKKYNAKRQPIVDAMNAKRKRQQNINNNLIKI
In words: co-IP; Hpo-Myc, Sav-HA and GFP-dRASSF cotransfected in Kc cells; anti-Myc, anti-HA, anti-dRASSF or control (anti-Flag) immunoprecipitates blotted for GFP-dRASSF, Sav-HA, Hpo-Myc and phospho-MST1.

In assay [2] the target is T2, Sav-HA (Drosophila melanogaster) (UniProt Q9VCR6).
T2 sequence: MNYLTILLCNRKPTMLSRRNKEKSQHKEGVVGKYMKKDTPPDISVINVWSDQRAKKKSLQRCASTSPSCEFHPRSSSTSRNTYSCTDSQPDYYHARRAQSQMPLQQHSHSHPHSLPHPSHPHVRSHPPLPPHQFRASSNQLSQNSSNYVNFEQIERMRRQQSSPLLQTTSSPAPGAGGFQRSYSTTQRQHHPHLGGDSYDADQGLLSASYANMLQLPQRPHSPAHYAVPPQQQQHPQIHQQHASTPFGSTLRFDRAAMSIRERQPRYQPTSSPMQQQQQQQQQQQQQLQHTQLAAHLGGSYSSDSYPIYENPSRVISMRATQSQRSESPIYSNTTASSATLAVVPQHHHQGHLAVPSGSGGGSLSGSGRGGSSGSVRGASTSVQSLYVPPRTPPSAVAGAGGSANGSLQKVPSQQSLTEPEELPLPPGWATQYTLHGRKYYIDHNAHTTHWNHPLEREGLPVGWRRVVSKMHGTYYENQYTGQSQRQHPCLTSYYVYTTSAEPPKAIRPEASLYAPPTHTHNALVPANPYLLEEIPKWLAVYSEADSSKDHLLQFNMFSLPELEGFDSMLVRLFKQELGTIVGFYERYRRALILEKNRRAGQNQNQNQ
The description is as above.

In assay [3] the target is T3, Salvador (Sav), endogenous (Drosophila melanogaster (endogenous in Kc cells)) (UniProt Q9VCR6).
T3 sequence: T2 sequence
In words: co-IP; endogenous proteins immunoprecipitated from Kc cell lysates with dRASSF antibodies (or Sav antibodies, Figure S2C); control Myc antibodies; blotted with Hpo66 and dRASSF antibodies.

Results are given in words; binding and its absence hold for the method and conditions named. In cells and extracts the contact can be indirect. Some entries that bind do so weakly or less than the wild type. For part of these data: Tags and fused reporters may be left off the sequences shown.

B1: Sav-HA (protein, UniProt Q9VCR6 1-608)
chain: T2 sequence
B1: in assay [1], the binding entry is “binds”.

B2: Hpo-Myc (protein, UniProt Q8T0S6 1-669)
chain: T1 sequence
On to B2, for which the binding result in assay [2] is “binds”.

B3: Hippo (Hpo), endogenous (protein, UniProt Q8T0S6 1-669)
chain: T1 sequence
Turning to B3, the binding result in assay [3] is “binds”.
